Reference: PMC6617459
No constants are given. Whether binding was seen depends on the method and setting. In cells and extracts the contact can be indirect. For some of these results: Binding can be weak; no strength is given. For some of these results: Sequences can lack the tags named with a protein.

Columns and labels:
[1] = target: T1, FLAG-tagged human hemochromatosis protein HFE (human) (UniProt Q30201); experiment: co-IP; lysates of HeLa transfectants in PBS with 0.5% CHAPS; anti-FLAG, anti-HA or anti-β2m antibody with protein G agarose, 2 h at room temperature; western blot
T1 sequence: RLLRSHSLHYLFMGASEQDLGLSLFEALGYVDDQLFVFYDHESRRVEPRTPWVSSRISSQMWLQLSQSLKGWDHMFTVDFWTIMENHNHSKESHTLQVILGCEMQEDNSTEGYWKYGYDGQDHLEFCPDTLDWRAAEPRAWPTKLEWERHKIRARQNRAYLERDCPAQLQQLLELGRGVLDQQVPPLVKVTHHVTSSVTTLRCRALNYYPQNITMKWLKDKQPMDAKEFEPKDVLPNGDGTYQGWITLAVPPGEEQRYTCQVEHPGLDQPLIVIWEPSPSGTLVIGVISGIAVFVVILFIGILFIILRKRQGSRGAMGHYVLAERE

[2] = target: T2, Myc-tagged Derlin-1 (human (HeLa cDNA)) (UniProt Q9BUN8); experiment: co-IP; HeLa lines expressing wild-type US11 and FLAG-FcRn (or an FcRn mutant), transfected with Myc-tagged Derlin-1 for 48 h; lysate 0.5 mg; anti-FLAG, anti-Myc or anti-TMEM129 antibody; western blot
T2 sequence: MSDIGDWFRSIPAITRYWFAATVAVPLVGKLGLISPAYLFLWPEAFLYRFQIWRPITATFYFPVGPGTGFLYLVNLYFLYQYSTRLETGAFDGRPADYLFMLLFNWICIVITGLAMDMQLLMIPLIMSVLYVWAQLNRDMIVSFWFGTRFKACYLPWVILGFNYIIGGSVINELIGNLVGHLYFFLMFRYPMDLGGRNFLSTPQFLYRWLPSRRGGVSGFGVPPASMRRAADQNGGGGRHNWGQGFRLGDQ

[3] = target: HA-tagged HCMV glycoprotein US11 (HCMV AD169); experiment: co-IP; lysates of HeLa transfectants in PBS with 0.5% CHAPS; anti-FLAG, anti-HA or anti-β2m antibody with protein G agarose, 2 h at room temperature; western blot
[4] = target: FLAG-tagged tailless FcRn (FcRn CT−/−) (human); experiment: co-IP; HeLa lines expressing wild-type US11 and FLAG-FcRn (or an FcRn mutant), transfected with Myc-tagged Derlin-1 for 48 h; lysate 0.5 mg; anti-FLAG, anti-Myc or anti-TMEM129 antibody; western blot

## HA-tagged HCMV glycoprotein US11
[1]
  binding: no binding
[2]
  binding: binds

B1: FLAG-tagged human hemochromatosis protein HFE (protein, UniProt Q30201 23-348)
chain: RLLRSHSLHYLFMGASEQDLGLSLFEALGYVDDQLFVFYDHESRRVEPRTPWVSSRISSQMWLQLSQSLKGWDHMFTVDFWTIMENHNHSKESHTLQVILGCEMQEDNSTEGYWKYGYDGQDHLEFCPDTLDWRAAEPRAWPTKLEWERHKIRARQNRAYLERDCPAQLQQLLELGRGVLDQQVPPLVKVTHHVTSSVTTLRCRALNYYPQNITMKWLKDKQPMDAKEFEPKDVLPNGDGTYQGWITLAVPPGEEQRYTCQVEHPGLDQPLIVIWEPSPSGTLVIGVISGIAVFVVILFIGILFIILRKRQGSRGAMGHYVLAERE
[3]
  binding: no binding

B2: endogenous E3 ligase TMEM129 (enzyme, UniProt A0AVI4 1-362)
chain: MDSPEVTFTLAYLVFAVCFVFTPNEFHAAGLTVQNLLSGWLGSEDAAFVPFHLRRTAATLLCHSLLPLGYYVGMCLAASEKRLHALSQAPEAWRLFLLLAVTLPSIACILIYYWSRDRWACHPLARTLALYALPQSGWQAVASSVNTEFRRIDKFATGAPGARVIVTDTWVMKVTTYRVHVAQQQDVHLTVTESRQHELSPDSNLPVQLLTIRVASTNPAVQAFDIWLNSTEYGELCEKLRAPIRRAAHVVIHQSLGDLFLETFASLVEVNPAYSVPSSQELEACIGCMQTRASVKLVKTCQEAATGECQQCYCRPMWCLTCMGKWFASRQDPLRPDTWLASRVPCPTCRARFCILDVCTVR
[4]
  binding: no binding
